This is one part of the list.
How the values were obtained:
Assay in all cases: log2 fold change, soluble protein after heating vs DMSO (PISA); higher = thermal stabilisation; K562 lysate, 10 uM; active = over 0.2 and 3.5 SD of the protein, either way, in both replicates (recomputed)
[1] = compound: CS(=O)(=O)CCNCc1ccc(-c2ccc3ncnc(Nc4ccc(OCc5cccc(F)c5)c(Cl)c4)c3c2)o1 [lapatinib]
How it was run: (§1)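 The values are log-two fold changes in thermal stability compared with solvent controls and come from duplicates. They were obtained by TMTpro 16plex LC-MS/MS, with channel sums equalised, on the supernatant after 21,000xg for 90 min. That supernatant came from crude K562 extract at 1 mg/mL protein treated with 10 μM compound for 30 min, heated for 3 min across 48°C-58°C, pooled and brought to 0.5% NP-40 at 4°C.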

Chains of the proteins cited; added tags and fusions are not shown. Lines headed by an entry give the natural chain unless they say otherwise; changes in a name come on top.
UniProt Q8NG48: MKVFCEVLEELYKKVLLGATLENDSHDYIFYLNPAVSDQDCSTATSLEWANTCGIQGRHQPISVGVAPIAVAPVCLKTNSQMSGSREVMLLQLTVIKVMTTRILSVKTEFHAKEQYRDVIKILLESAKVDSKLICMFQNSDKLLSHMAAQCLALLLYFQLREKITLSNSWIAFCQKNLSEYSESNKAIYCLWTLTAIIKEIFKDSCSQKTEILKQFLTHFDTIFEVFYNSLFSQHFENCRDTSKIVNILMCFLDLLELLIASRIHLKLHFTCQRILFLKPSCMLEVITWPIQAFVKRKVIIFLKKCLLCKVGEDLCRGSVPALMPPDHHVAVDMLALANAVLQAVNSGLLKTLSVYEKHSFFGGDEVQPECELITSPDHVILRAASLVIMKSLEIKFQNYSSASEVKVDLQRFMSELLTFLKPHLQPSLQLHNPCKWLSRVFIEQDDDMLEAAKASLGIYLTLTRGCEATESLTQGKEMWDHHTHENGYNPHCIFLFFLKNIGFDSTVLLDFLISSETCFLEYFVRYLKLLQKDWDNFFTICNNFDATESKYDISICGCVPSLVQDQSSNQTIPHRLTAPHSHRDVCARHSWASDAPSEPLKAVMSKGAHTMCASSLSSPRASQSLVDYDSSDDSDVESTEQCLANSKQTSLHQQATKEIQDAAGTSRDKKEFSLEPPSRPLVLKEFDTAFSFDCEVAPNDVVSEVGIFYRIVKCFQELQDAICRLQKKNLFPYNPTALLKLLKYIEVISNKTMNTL
UniProt Q15031: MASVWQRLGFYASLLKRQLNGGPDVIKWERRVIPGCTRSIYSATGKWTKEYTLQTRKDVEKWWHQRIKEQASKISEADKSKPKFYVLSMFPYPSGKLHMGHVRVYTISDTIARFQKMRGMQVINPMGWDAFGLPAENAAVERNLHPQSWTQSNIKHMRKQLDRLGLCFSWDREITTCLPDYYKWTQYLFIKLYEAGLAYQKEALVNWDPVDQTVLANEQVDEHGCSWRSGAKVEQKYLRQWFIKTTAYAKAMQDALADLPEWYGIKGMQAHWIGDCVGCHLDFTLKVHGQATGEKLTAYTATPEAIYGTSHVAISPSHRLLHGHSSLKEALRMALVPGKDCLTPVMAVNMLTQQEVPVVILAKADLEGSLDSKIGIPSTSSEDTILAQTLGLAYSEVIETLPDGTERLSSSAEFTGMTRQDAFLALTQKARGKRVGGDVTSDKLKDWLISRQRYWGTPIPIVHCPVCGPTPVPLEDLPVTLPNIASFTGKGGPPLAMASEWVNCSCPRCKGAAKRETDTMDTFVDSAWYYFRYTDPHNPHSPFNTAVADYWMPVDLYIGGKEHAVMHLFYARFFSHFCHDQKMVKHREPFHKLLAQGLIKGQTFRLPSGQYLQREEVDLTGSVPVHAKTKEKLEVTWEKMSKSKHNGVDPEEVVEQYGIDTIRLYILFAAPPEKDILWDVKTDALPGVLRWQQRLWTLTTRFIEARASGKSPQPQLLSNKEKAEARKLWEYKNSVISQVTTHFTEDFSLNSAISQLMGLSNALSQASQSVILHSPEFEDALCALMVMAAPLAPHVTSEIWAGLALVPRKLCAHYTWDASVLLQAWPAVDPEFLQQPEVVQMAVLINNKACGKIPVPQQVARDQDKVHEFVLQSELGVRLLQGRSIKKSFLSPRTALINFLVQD
UniProt Q15048: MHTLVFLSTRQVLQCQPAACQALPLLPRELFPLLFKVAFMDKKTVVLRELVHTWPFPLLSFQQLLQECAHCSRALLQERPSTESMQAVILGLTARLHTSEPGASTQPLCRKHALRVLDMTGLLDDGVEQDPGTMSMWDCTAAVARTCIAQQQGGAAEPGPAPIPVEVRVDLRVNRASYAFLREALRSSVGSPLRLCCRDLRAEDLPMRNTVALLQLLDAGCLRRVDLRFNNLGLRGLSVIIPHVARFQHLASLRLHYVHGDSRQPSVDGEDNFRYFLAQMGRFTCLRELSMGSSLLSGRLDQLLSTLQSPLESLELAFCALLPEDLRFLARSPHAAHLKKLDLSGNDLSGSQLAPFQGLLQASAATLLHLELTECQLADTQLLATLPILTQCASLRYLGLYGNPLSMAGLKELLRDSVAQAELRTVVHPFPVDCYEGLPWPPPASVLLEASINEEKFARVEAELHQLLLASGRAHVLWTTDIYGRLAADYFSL
UniProt P49257: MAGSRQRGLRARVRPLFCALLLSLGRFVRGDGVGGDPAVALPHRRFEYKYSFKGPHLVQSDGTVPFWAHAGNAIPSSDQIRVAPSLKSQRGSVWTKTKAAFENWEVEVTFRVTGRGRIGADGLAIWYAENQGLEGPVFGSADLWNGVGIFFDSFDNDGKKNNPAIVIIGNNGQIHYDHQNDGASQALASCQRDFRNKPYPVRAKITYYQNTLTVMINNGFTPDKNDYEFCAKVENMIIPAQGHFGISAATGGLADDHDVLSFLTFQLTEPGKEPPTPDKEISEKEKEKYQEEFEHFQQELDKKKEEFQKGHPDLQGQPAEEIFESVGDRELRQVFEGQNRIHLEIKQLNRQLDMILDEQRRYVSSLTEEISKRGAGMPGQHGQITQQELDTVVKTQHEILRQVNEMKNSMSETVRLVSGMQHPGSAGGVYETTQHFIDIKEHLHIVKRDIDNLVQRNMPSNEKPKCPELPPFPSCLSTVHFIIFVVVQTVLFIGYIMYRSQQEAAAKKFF
UniProt P30533, whole entry, looked up: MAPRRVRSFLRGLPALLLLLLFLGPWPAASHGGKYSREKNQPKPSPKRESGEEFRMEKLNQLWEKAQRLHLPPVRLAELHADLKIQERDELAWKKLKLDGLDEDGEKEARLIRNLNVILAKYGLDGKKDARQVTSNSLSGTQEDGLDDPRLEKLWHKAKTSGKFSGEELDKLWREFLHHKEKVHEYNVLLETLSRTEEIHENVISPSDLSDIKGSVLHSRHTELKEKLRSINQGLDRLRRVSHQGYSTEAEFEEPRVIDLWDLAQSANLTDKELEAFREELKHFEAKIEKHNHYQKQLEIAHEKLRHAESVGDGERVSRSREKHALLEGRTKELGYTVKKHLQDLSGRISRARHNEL
UniProt Q3MHD2: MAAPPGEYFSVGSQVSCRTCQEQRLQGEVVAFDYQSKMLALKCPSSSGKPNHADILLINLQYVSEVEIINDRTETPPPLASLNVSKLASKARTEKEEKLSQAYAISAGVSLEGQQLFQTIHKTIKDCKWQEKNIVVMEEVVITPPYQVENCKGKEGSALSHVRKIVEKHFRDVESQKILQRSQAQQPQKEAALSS
UniProt Q9Y608: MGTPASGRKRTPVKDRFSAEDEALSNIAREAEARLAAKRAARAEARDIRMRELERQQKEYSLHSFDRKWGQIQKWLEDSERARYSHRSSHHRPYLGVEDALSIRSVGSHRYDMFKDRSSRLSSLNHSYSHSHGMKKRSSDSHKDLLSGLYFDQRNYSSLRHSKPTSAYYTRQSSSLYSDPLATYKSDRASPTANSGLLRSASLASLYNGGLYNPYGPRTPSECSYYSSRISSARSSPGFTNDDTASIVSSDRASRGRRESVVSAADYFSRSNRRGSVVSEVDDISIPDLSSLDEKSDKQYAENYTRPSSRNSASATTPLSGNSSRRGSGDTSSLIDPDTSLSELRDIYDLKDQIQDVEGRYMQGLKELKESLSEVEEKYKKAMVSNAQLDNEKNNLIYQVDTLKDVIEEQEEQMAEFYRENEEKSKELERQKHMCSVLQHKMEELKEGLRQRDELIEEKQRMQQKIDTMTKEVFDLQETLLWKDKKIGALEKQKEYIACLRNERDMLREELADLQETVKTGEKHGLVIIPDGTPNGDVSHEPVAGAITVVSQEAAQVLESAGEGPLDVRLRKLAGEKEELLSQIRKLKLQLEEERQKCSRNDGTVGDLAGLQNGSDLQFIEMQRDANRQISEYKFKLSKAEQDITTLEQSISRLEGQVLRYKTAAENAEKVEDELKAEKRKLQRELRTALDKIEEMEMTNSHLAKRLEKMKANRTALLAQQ
UniProt Q8NC56: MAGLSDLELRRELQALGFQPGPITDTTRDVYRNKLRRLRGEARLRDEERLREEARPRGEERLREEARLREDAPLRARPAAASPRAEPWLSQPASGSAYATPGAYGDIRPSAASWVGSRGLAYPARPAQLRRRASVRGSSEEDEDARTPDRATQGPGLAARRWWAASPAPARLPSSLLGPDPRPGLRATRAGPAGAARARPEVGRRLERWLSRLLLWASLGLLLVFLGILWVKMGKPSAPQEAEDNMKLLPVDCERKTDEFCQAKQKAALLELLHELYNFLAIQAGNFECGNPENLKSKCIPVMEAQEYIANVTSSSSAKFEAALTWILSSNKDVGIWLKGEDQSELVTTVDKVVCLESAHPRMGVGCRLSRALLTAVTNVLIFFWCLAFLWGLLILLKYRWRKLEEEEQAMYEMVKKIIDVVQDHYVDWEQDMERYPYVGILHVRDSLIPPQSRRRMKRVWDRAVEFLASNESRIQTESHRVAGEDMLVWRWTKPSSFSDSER
UniProt P07195, whole entry, looked up: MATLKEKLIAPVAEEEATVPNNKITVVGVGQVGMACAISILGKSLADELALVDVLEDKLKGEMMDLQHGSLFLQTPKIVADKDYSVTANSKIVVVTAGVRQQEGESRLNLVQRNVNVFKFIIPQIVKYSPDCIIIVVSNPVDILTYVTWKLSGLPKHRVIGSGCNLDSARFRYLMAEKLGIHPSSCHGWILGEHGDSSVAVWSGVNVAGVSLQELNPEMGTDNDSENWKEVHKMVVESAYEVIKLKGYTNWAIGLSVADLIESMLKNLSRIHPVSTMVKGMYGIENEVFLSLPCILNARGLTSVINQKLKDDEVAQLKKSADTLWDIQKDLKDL
UniProt Q08380: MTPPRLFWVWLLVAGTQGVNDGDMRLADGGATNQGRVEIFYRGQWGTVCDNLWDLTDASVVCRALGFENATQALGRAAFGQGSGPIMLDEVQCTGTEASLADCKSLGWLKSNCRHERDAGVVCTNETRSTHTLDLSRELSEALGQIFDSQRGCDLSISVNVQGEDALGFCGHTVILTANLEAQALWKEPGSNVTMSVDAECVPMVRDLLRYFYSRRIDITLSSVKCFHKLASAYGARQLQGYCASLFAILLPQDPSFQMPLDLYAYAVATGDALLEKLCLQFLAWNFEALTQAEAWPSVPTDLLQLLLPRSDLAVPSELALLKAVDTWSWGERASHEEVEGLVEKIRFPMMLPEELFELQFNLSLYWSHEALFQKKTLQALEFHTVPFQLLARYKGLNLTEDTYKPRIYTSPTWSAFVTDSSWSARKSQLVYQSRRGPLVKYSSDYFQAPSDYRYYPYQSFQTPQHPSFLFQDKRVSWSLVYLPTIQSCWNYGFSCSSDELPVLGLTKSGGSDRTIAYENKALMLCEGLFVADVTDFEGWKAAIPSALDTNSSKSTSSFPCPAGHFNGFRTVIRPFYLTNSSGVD
UniProt O94898: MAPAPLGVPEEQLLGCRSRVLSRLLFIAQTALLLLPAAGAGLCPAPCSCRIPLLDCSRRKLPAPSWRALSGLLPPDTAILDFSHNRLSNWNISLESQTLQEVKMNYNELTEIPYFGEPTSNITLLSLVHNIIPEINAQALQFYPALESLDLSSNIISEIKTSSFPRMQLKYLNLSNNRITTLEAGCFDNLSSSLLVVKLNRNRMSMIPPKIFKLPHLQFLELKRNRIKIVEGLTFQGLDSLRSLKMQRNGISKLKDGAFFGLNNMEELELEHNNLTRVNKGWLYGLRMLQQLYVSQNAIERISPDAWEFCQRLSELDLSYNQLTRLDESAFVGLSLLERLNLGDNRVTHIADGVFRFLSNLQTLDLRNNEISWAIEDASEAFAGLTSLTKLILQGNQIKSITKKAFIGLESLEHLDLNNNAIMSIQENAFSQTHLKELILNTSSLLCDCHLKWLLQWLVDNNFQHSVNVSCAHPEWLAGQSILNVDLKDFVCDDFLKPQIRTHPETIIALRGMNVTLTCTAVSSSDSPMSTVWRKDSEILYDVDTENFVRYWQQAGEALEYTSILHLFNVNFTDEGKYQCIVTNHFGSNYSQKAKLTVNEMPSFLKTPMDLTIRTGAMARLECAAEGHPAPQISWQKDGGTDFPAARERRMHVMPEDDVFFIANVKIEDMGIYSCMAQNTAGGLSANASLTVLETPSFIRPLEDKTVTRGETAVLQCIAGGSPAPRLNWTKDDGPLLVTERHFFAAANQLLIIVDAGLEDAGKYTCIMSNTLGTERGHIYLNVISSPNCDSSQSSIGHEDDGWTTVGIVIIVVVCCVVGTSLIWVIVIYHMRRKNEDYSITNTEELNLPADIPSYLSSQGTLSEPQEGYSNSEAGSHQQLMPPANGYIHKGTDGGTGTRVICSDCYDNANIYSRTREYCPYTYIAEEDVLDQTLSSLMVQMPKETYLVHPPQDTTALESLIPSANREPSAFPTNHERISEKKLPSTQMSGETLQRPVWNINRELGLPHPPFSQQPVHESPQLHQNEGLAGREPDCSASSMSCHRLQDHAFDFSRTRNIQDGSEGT

[2] = compound: CS(=O)(=O)N1CCN(Cc2cc3nc(-c4cccc5[nH]ncc45)nc(N4CCOCC4)c3s2)CC1 [pictilisib]
How it was run: as §1

[3] = compound: C[C@@H](Oc1cc(-c2cnn(C3CCNCC3)c2)cnc1N)c1c(Cl)ccc(F)c1Cl [crizotinib]
How it was run: as §1

[4] = compound: C[C@H](C1=CC=C(C=C1)C(=O)NC2=C3C=CNC3=NC=C2)N
How it was run: as §1

[5] = compound: C[C@H](Nc1ncnc2nc[nH]c12)c1cc2cccc(Cl)c2c(=O)n1-c1ccccc1 [duvelisib]
How it was run: as §1

[6] = compound: Cc1cc(Nc2cc(CN3CCOCC3)c3nc(C)c(Cc4ccc(Cl)cc4F)n3n2)n[nH]1 [gandotinib]
How it was run: as §1

[7] = compound: Cc1cc(Nc2cc(N3CCN(C)CC3)nc(Sc3ccc(NC(=O)C4CC4)cc3)n2)n[nH]1 [tozasertib]
How it was run: as §1

[8] = compound: Cc1ccc(-n2nc(C(C)(C)C)cc2NC(=O)Nc2ccc(OCCN3CCOCC3)c3ccccc23)cc1 [doramapimod]
How it was run: as §1

[9] = compound: Cc1ccc(NC(=O)c2ccc(CN3CC[C@H](N(C)C)C3)c(C(F)(F)F)c2)cc1Nc1nccc(-c2cncnc2)n1 [bafetinib]
How it was run: as §1

[10] = compound: Cc1cccc(CC(=O)N2CCc3c2ccc(-c2cn(C)c4ncnc(N)c24)c3F)n1
How it was run: as §1

Measured: log2 fold change

LINS1 (UniProt Q8NG48)
inactive: [1] -0.021 | [2] -0.012 | [3] -0.005 | [4] -0.073 | [5] -0.015 | [6] -0.093 | [7] -0.068 | [8] 0.045 | [9] -0.027 | [10] 0.06

LSG1 (UniProt Q9H089)
inactive: [1] -0.002 | [2] -0.044 | [3] -0.191 | [4] -0.099 | [5] -0.075 | [6] 0.037 | [7] -0.03 | [8] 0.085 | [9] -0.077 | [10] 0.072

LARS2 (UniProt Q15031)
inactive: [1] -0.012 | [2] -0.073 | [3] -0.047 | [4] 0.014 | [5] -0.039 | [6] -0.2 | [7] 0.054 | [8] 0.012 | [9] -0.067 | [10] 0.044

LRRC14 (UniProt Q15048)
inactive: [1] -0.047 | [2] -0.037 | [3] 0.027 | [4] -0.134 | [5] 0.086 | [6] -0.086 | [7] -0.045 | [8] -0.022 | [9] -0.075 | [10] 0.062

LMAN1 (UniProt P49257)
inactive: [1] -0.007 | [2] 0.005 | [3] 0 | [4] 0.064 | [5] 0.01 | [6] -0.063 | [7] 0.049 | [8] 0.036 | [9] -0.047 | [10] 0.023

LINGO1 (UniProt Q96FE5)
inactive: [1] -0.111 | [2] 0.017 | [4] -0.135 | [5] -0.012 | [6] 0.064 | [7] -0.011 | [9] -0.002 | [10] 0.032

LRPAP1 (UniProt P30533)
inactive: [1] 0.005 | [2] 0.039 | [3] 0.101 | [4] 0.066 | [5] 0.03 | [6] -0.019 | [7] 0.006 | [8] -0.029 | [9] 0.053 | [10] -0.055

LSM12 (UniProt Q3MHD2)
inactive: [1] 0.021 | [2] -0.01 | [3] -0.003 | [4] 0.023 | [5] 0.023 | [6] 0.008 | [7] 0.015 | [8] -0.009 | [9] 0.044 | [10] -0.038

LRRFIP2 (UniProt Q9Y608)
inactive: [1] 0.003 | [2] -0.009 | [3] 0.041 | [4] 0.048 | [5] 0.015 | [6] 0.018 | [7] 0.002 | [8] -0.024 | [9] 0.045 | [10] -0.035

LEMD2 (UniProt Q8NC56)
inactive: [1] 0.037 | [3] -0.049 | [4] -0.005 | [5] -0.061 | [6] -0.021 | [7] -0.048 | [8] 0.036 | [10] 0.008

LDHB (UniProt P07195)
inactive: [1] -0.016 | [2] -0.001 | [3] 0.016 | [4] -0.005 | [5] 0.003 | [6] 0.049 | [7] -0.031 | [8] -0.04 | [9] 0.02 | [10] -0.02

LGALS3BP (UniProt Q08380)
inactive: [1] -0.239 | [3] 0.204 | [4] 0.035 | [5] -0.149 | [6] 0.197 | [7] 0.115 | [8] -0.087 | [10] 0.53

LRIG2 (UniProt O94898)
inactive: [1] -0.015 | [3] 0.017 | [4] -0.036 | [5] -0.055 | [6] 0.077 | [7] 0.054 | [8] 0.017 | [10] 0.061

From the supplement of paper PMC10849652
